# Laboratory results as given in US20210252159A1 (priority 2018, published 2021).
# Assay: general procedure: Fmoc solid-phase peptide synthesis
# Settings: conjugation step, TFA salts
substance,measurement,setting,value
des-ciclesonide-Boc-Cysteine-Peptide,final LC-MS purity,RP-HPLC,97%
same,conjugation yield,,62%
